Source: PubChem BioAssay AID540256 (National Center for Advancing Translational Sciences (NCATS), 2011)
The campaign covered roughly 300,000 compounds. About 3,700 (1.2%) were called active. The shares of active, inactive and inconclusive entries below differ from those in the screen. Calls follow the shape of the full dose curve; tested in HEK293 cells. Where the call is inconclusive, the potency comes from a doubtful curve fit.

test: qHTS for Inhibitors of binding or entry into cells for Lassa Virus; settings: Lassa virus pseudotype entry inhibition, cell reporter; activity change, negative = inhibition: at 37.9 µM (top of the series) unless noted; also: nearly all actives have a fitted effect of over 50% in size
% is scaled to controls: 0 for no effect and ±100 for the full control effect; potency is read from the fitted curve at half-maximal effect.

| SMILES | activity change, negative = inhibition | Potency |
| --- | --- | --- |
| Cc1cc(=O)n2[nH]c(-c3ccccc3Cl)cc2n1 | inactive: -11.8% |  |
| COc1cc(NC(=O)C2CCCN(S(=O)(=O)c3cn(C)cn3)C2)cc(OC)c1 (configuration not stated) | inactive: 1.95% [at 46.1 µM] |  |
| O=C(/C=C/c1ccccc1)Nc1ncn[nH]1 |  | inconclusive: 5.17 µM [inhibitor, partial curve, poor fit] |
| CCCc1ccc(Oc2cc(N3CCOCC3)nc(-c3ccccc3)n2)cc1 | inactive: -11.4% |  |
| O=C(Nc1nc(-c2ccc(S(=O)(=O)N3CCCC3)cc2)cs1)C1COc2ccccc2O1 (configuration not stated) |  | inconclusive: 14.1 µM [inhibitor, single point] |
| CC(/C=C1\SC(=S)N(C(C(=O)O)C(C)C)C1=O)=C\c1ccccc1 (configuration not stated) | inactive: 7.6% [at 46.1 µM] |  |
| CCc1ccc(-n2c(CCC(=O)O)ccc2-c2cccs2)cc1 | inactive: 3.52% [at 46.1 µM] |  |
| O=C1c2ccccc2-c2nnc(-c3ccccc3)cc21 |  | inconclusive: 2 µM [inhibitor, full curve] |
| CC(=O)Nc1ccc(SCC(=O)O)cc1 | inactive: 3.41% [at 46.1 µM] |  |
| COC(=O)c1cc2c(-c3ccccc3)cc3ccccn3c-2c1C(=O)OC |  | inconclusive: 11.2 µM [inhibitor, partial curve, poor fit] |
| Cc1ccccc1NC(=O)Cn1c(=O)n(CCCCCC(=O)NCc2ccc3c(c2)OCO3)c(=O)c2sccc21 |  | inconclusive: 3.16 µM [inhibitor, full curve] |
| CCOc1ccc(NC(=O)c2sc3nc(-c4ccc(OC)cc4)cn3c2C)cc1 | inactive: 17% [at 46.1 µM] |  |
| O=C(/C=C/c1cccc([N+](=O)[O-])c1)n1cnc2ccccc21 |  | inconclusive: 11.2 µM [inhibitor, single point] |
| O=C(NCC(c1cccnc1)N1CCN(c2ccc(F)cc2)CC1)c1ccc(F)cc1 (configuration not stated) |  | inconclusive: 17.8 µM [inhibitor, partial curve, poor fit] |
| CSc1nc2ccc(S(=O)(=O)Nc3c(C)n(C)n(-c4ccccc4)c3=O)cc2s1 |  | inconclusive: 29.1 µM [activator, single point] |
| CCN(CC)C(=O)CSc1nnc(-c2cc(-c3ccc(Cl)cc3)nc3ccccc23)o1 | inactive: 0.121% |  |
| CC(=O)c1ccc(NC(=O)NC2CCCCCCC2)cc1 |  | inconclusive: 15.8 µM [inhibitor, single point] |
| O[C@@H]1C[C@H](c2ccc(Cl)cc2)N(CC2CCCCC2)C[C@@H]1n1cc(C2CC2)nn1 |  | inconclusive: 22.3 µM [inhibitor, partial curve] |
| Cn1cccc1/C=C1/C(=O)NC(=O)N(C(C)(C)C)C1=O |  | inconclusive: 10 µM [activator, single point] |
| Cc1ccc2nc3c(cc2c1)CN(Cc1ccco1)C(=NCC1CCCO1)S3 (configuration not stated) |  | inconclusive: 7.3 µM [inhibitor, partial curve] |
| Nc1ccc(C(=O)NN2C(=O)[C@H](Cl)C2c2ccc(Cl)cc2)cc1 (some centres not stated) |  | active: 11.2 µM |
| O=C1C2C3C=CC([C@@H]2C(=O)N1C1CCCCC1)[C@H]1C(=O)N(C2CCCCC2)C(=O)C31 (some centres not stated) |  | inconclusive: 8.2 µM [inhibitor, partial curve] |
| COc1ccc(CCNC(=O)C(=O)NCCC2CCCCN2S(=O)(=O)c2cccs2)cc1 (configuration not stated) |  | inconclusive: 35.5 µM [inhibitor, single point] |

| SMILES | activity change, negative = inhibition | Potency |
| --- | --- | --- |
| O=C(Nc1ccccc1Cl)c1sccc1-c1ccccc1 |  | inconclusive: 20 µM [inhibitor, partial curve] |
| COc1ccc(C)cc1NC(=O)CSc1ccc(-c2sc(C)nc2C)nn1 |  | inconclusive: 3.98 µM [inhibitor, full curve, poor fit] |
| O=C(Cn1c(=O)n(CCc2c[nH]c3ccccc23)c(=O)c2cccnc21)Nc1ccccc1F |  | inconclusive: 29.1 µM [inhibitor, single point] |
| C/C(=N\NC(=O)c1ccccc1F)c1cccc(NC(=O)c2ccc(C)cc2)c1 |  | inconclusive: 3.16 µM [inhibitor, partial curve] |
| CN(Cc1c(F)cccc1Cl)C(=O)c1ccc(NC(=O)CC2SC(N3CCCC3)=NC2=O)cc1 (configuration not stated) |  | inconclusive: 15.8 µM [activator, partial curve, poor fit] |
| Cc1nnc(N2CCN(C(=O)Nc3cc(F)ccc3F)CC2)c2nn(-c3ccc(Cl)cc3)c(C)c12 |  | inconclusive: 3.16 µM [inhibitor, single point] |
| O=C(NCc1ccco1)c1cc2nc(C3CC3)cc(C(F)(F)F)n2n1 |  | active: 3.55 µM |
| Cc1cc(C)n(-c2nc(NCCN(C)C)c3c4c(sc3n2)CCCC4)n1 |  | inconclusive: 15.8 µM [inhibitor, single point] |
| Cc1ccc(S(=O)(=O)N2CCN(CC(=O)N/N=C\c3ccc(Cl)c([N+](=O)[O-])c3)CC2)cc1 | inactive: -37.3% |  |
| Cc1ccc(NC(=S)N2CCN(Cc3ccccc3)CC2)cc1 | inactive: -10.2% [at 46.1 µM] |  |
| Cc1ccc(Nc2ccc(N3CCN(C(=O)c4ccc([N+](=O)[O-])cc4Cl)CC3)nn2)cc1 |  | inconclusive: 35.5 µM [inhibitor, single point] |
| Cn1c(O)c(N=Nc2ccc(F)cc2)c2ccccc21 |  | inconclusive: 35.5 µM [activator, single point] |
| CCOC(=O)c1sc(Nc2nc3c(F)cccc3s2)cc1C | inactive: -17.4% |  |
| CC(C)c1ccc(N(C(=O)c2ccco2)C(C(=O)NC2CCCC2)c2ccncc2)cc1 (configuration not stated) | inactive: -16.1% |  |
| O=C(CSc1ncnc2c1nnn2Cc1ccc(F)cc1)NC1CCCCC1 | inactive: -3.53% [at 46.1 µM] |  |
| CCC1=C(c2ccc(C)cc2)S(=O)(=O)N=C1N1CCC(C(=O)Nc2ccccc2C(=O)OC)CC1 |  | inconclusive: 35.5 µM [inhibitor, partial curve, poor fit] |
| O=C1N(c2ccccc2)C(c2cccnc2)N2CCCN12 (configuration not stated) |  | inconclusive: 35.5 µM [activator, single point] |
| COc1ccc(CNC(=O)CCc2c(C)nn(-c3ccc(N4CCOCC4)nn3)c2C)c(OC)c1 | inactive: 1.95% [at 46.1 µM] |  |
| CN(C)c1ccc(C(CNC(=O)c2ccc(C(C)(C)C)cc2)N2CCCC2)cc1 (configuration not stated) |  | inconclusive: 7.08 µM [inhibitor, partial curve, poor fit] |
| Cc1ccc(S(=O)(=O)N2CCC(O)(c3cccnc3)CC2)cc1 |  | inconclusive: 14.6 µM [activator, partial curve, poor fit] |
| FC(F)(F)c1cccc(-c2nnc3ccc(C(F)(F)F)cn23)c1 |  | inconclusive: 0.0046 µM [activator, full curve, poor fit] |
| Cc1cccn2cc(-c3ccccc3)nc12 |  | inconclusive: 7.08 µM [inhibitor, partial curve] |
| COCCn1nnnc1C(c1ccccc1)N1CCN(C)CC1 (configuration not stated) | inactive: -0.454% |  |

| SMILES | activity change, negative = inhibition | Potency |
| --- | --- | --- |
| Cc1c(N=C2N=C(NC(=O)c3cccs3)c3ccccc32)c(=O)n(-c2ccccc2)n1C |  | inconclusive: 28.2 µM [inhibitor, partial curve, poor fit] |
| CC(OC(=O)c1ccc(S(=O)(=O)NCc2ccco2)cc1)C(=O)Nc1ccccc1 (configuration not stated) |  | inconclusive: 0.112 µM [inhibitor, full curve] |
| Nc1nc(NC(=O)c2ccccc2)nn1-c1ccccc1 | inactive: 20.9% |  |
| COc1ccc(N2CCN(C(=O)c3ccc(N4C(=O)NC5CC4(C)Oc4ccccc45)cc3)CC2)cc1 (configuration not stated) |  | inconclusive: 35.5 µM [inhibitor, single point] |
| O=C(CSc1ncc2c(n1)-c1ccccc1N(Cc1ccc(Cl)cc1)S2(=O)=O)c1ccc(Cl)cc1 |  | inconclusive: 25.1 µM [activator, single point] |
| Cc1ccc(Nc2ccc(N3CCN(C(=O)c4cccc([N+](=O)[O-])c4)CC3)nn2)cc1 | inactive: -9.44% [at 46.1 µM] |  |
| COc1ccc(NC(=O)C23CC4CC(C2)CC(n2cnc(Br)n2)(C4)C3)c(C)c1 |  | inconclusive: 0.0046 µM [inhibitor, full curve, poor fit] |
| C=CCN1C(=O)C(O)(CC(=O)c2ccc(-n3cccc3)cc2)c2ccccc21 (configuration not stated) | inactive: 0.289% |  |
| Fc1ccccc1C(NCCc1ccc(Cl)cc1)c1nnc(-c2ccccc2)o1 (configuration not stated) | inactive: -11.4% [at 46.1 µM] |  |
| Cc1ccc(-c2nc(-c3cccnc3)no2)cc1 |  | inconclusive: 0.116 µM [activator, full curve, poor fit] |
| COC(=O)C1=C(N)Oc2cc(C)n(CC3CCCO3)c(=O)c2C1c1ccc(Cl)cc1 (configuration not stated) |  | inconclusive: 22.4 µM [inhibitor, single point] |
| COc1cccc(Nc2nc(NCC3CCCO3)c3ccccc3n2)c1 (configuration not stated) |  | inconclusive: 35.5 µM [inhibitor, single point] |
| O=C(NC1CC1)c1ccc2c(c1)C1C3CCC(C3)C1C(c1ccccc1)N2 (configuration not stated) |  | inconclusive: 28.2 µM [inhibitor, partial curve, poor fit] |
| COc1ccccc1NC(=O)C1=C(C)NC(SCC(=O)c2ccccc2)=C(C#N)C1c1ccco1 (configuration not stated) | inactive: -4.73% |  |
| CN(Cc1ccccc1)C(=O)CN(c1ccc(F)cc1)S(=O)(=O)c1ccc2c(c1)OCCO2 |  | inconclusive: 11.2 µM [inhibitor, partial curve, poor fit] |
| CCC(c1nnnn1Cc1ccco1)N(CCc1ccccc1)Cc1cc2cccc(C)c2[nH]c1=O (configuration not stated) |  | inconclusive: 25.1 µM [inhibitor, single point] |
| CN/C=C1\C(=O)C(C)(C)Oc2ccc3ccc(=O)oc3c21 | inactive: 2.55% |  |
| O=C1/C(=C/c2ccc(F)cc2)SC(=S)N1NS(=O)(=O)c1ccccc1 |  | inconclusive: 1 µM [activator, partial curve] |
| CCOC(=O)c1ccc(NC(=O)CN2C(=O)C(C)(C)c3ccccc32)cc1 |  | inconclusive: 14.1 µM [inhibitor, single point] |
| CC(=O)NCc1c(Cl)cccc1-n1cccc1 | inactive: -1.71% |  |
| C[C@H](NC(=O)c1ccccc1Cl)C(=O)OCC(=O)N1CC2(C)CC1CC(C)(C)C2 (some centres not stated) | inactive: 20.8% |  |

As entered above.
Under Potency, `COc1ccc(NC(=O)C23CC4CC(C2)CC(n2cnc(Br)n2)(C4)C3)c(C)c1` has inconclusive: 0.0046 µM [inhibitor, full curve, poor fit]
Under Potency, `CN(Cc1ccccc1)C(=O)CN(c1ccc(F)cc1)S(=O)(=O)c1ccc2c(c1)OCCO2` has inconclusive: 11.2 µM [inhibitor, partial curve, poor fit]
Under activity change, negative = inhibition, `C[C@H](NC(=O)c1ccccc1Cl)C(=O)OCC(=O)N1CC2(C)CC1CC(C)(C)C2` (some centres not stated) has inactive: 20.8%
Under activity change, negative = inhibition, `CN/C=C1\C(=O)C(C)(C)Oc2ccc3ccc(=O)oc3c21` has inactive: 2.55%
